Measured values as given in paper PMC4728133.
These are yes or no findings as the source states them, for the method shown. In cells and extracts the contact can be indirect.

Substrate: C terminal REST peptide (REST^C) (mouse (endogenous in mouse ESC))
Experiment: co-IP; nuclear extracts of ESC in IP buffer (150 mM NaCl, 50 mM Tris-HCl pH 7.5, 0.5% Triton X-100, 0.5 mM EDTA, 10% glycerol), DNA and RNA digested with Benzonase, immunoprecipitated overnight at 4°C with rabbit anti-mouse REST antibody, protein G Dynabeads; Western blot

- binding: no binding
B1: SIN3A (protein, UniProt Q60520 1-1274)
chain: MKRRLDDQESPVYAAQQRRIPGSTEAFSHQHRVLAPAPPVYEAVSETMQSATGIQYSVAPNYQVSAVPQSSGSHGPAIAAVHSSHHHPTAVQPHGGQVVQSHAHPAPPVAPVQGQQQFQRLKVEDALSYLDQVKLQFGSQPQVYNDFLDIMKEFKSQSIDTPGVISRVSQLFKGHPDLIMGFNTFLPPGYKIEVQTNDMVNVTTPGQVHQIPTHGIQPQPQPPPQHPSQPSSQSAPTPAQPAPQPTAAKVSKPSQLQAHTPASQQTPPLPPYASPRSPPVQPHTPVTISLGTAPSLQNNQPVEFNHAINYVNKIKNRFQGQPDIYKAFLEILHTYQKEQRNAKEAGGNYTPALTEQEVYAQVARLFKNQEDLLSEFGQFLPDANSSVLLSKTTAEKVDSVRNDHGGTVKKPQLNNKPQRPSQNGCQIRRHSGTGATPPVKKKPKLMSLKESSMADASKHGVGTESLFFDKVRKALRSAEAYENFLRCLVIFNQEVISRAELVQLVSPFLGKFPELFNWFKNFLGYKESVHLESFPKERATEGIAMEIDYASCKRLGSSYRALPKSYQQPKCTGRTPLCKEVLNDTWVSFPSWSEDSTFVSSKKTQYEEHIYRCEDERFELDVVLETNLATIRVLEAIQKKLSRLSAEEQAKFRLDNTLGGTSEVIHRKALQRIYADKAADIIDGLRKNPSIAVPIVLKRLKMKEEEWREAQRGFNKVWREQNEKYYLKSLDHQGINFKQNDTKVLRSKSLLNEIESIYDERQEQATEENAGVPVGPHLSLAYEDKQILEDAAALIIHHVKRQTGIQKEDKYKIKQIMHHFIPDLLFAQRGDLSDVEEEEEEEMDVDEATGAPKKHNGVGGSPPKSKLLFSNTAAQKLRGMDEVYNLFYVNNNWYIFMRLHQILCLRLLRICSQAERQIEEENREREWEREVLGIKRDKSDSPAIQLRLKEPMDVDVEDYYPAFLDMVRSLLDGNIDSSQYEDSLREMFTIHAYIAFTMDKLIQSIVRQLQHIVSDEVCVQVTDLYLAENNNGATGGQLNSQTSRSLLESAYQRKAEQLMSDENCFKLMFIQSQGQVQLTVELLDTEEENSDDPVEAERWSDYVERYMSSDTTSPELREHLAQKPVFLPRNLRRIRKCQRGREQQEKEGKEGNSKKTMENVESLDKLECRFKLNSYKMVYVIKSEDYMYRRTALLRAHQSHERVSKRLHQRFQAWVDKWTKEHVPREMAAETSKWLMGEGLEGLVPCTTTCDTETLHFVSINKYRVKYGTVFKAP
